Assay results from US20090099204A1, “Amide derivative, insecticide containing the same and method for application thereof as insecticide” (Mitsui Chemicals, Inc., priority 2005, published 2009).
Some results were stated once for a whole list of compounds, not compound by compound.

Tests used:
[1] = system: Diamondback Moth (Plutella xylostella); test: Insecticidal Test on Diamondback Moth (Plutella xylostella); type: in vivo; conditions: treatment concentration 100 ppm; cabbage leaf immersed; second-instar larvae; counted 6 days after release; 25° C.
Protocol: Insecticidal Test on Diamondback Moth (Plutella xylostella)
(§1) A piece of cabbage leaf was immersed for 30 seconds in a liquid chemical prepared by diluting a test compound to a prescribed concentration. After air-drying, the piece was put into a 7-cm polyethylene cup and second-instar larvae of diamondback moths were released thereinto. The polyethylene cups were set in an isothermal chamber thermostated at 25° C. From the release, 6 days later, the dead and alive were counted. The test was carried out with two replications of 5 insects per a plot.

[2] = system: Common Cutworm (Spodoptera litura); test: Insecticidal Test on Common Cutworm (Spodoptera litura); type: in vivo; conditions: treatment concentration 100 ppm; cabbage leaf immersed; second-instar larvae; counted 6 days after release; 25° C.
Protocol: Insecticidal Test on Common Cutworm (Spodoptera litura)
as §1, with “common cutworms” for “diamondback moths”, “release” for “release,”

SMILES | mortality [1] [%] | mortality [2] [%]
COc1cc(C(F)(C(F)(F)F)C(F)(F)F)cc(Br)c1NC(=O)c1cccc(NC(=O)c2ccc(F)cc2)c1 [1-255] | ≥ 70 | ≥ 70
O=C(Nc1cccc(C(=O)Nc2c(Br)cc(C(F)(C(F)(F)F)C(F)(F)F)cc2OC(F)(F)F)c1)c1ccc(C(F)(F)F)cc1 [1-248] | ≥ 70 | ≥ 70
O=C(Nc1cccc(C(=O)Nc2c(Br)cc(C(F)(C(F)(F)F)C(F)(F)F)cc2SC(F)(F)C(F)(F)F)c1)c1ccccc1 [1-201] | ≥ 70 | ≥ 70
CN(C(=O)c1cccnc1Cl)c1cccc(C(=O)Nc2c(Br)cc(C(F)(C(F)(F)F)C(F)(F)F)cc2SC(F)(F)C(F)(F)F)c1 [2-203] | ≥ 70 | ≥ 70
O=C(Nc1cccc(C(=O)Nc2c(Br)cc(C(F)(C(F)(F)F)C(F)(F)F)cc2OC(F)(F)F)c1)c1ccc(F)cc1 [1-247] | ≥ 70 | ≥ 70
O=C(Nc1c(Cl)cc(C(F)(C(F)(F)F)C(F)(F)F)cc1OC(F)(F)F)c1cccc(NC(=O)c2ccccc2F)c1 [1-242] | ≥ 70 | ≥ 70
COc1cc(C(F)(C(F)(F)F)C(F)(F)F)cc(C)c1NC(=O)c1cccc(N(C)C(=O)c2ccccc2F)c1 [2-262] | ≥ 70 | ≥ 70
O=C(Nc1cccc(C(=O)Nc2c(Br)cc(C(F)(F)C(F)(F)C(F)(F)F)cc2SC(F)(F)F)c1)c1ccccc1 [1-207] | ≥ 70 | ≥ 70
O=C(Nc1cccc(C(=O)Nc2c(Br)cc(C(F)(C(F)(F)F)C(F)(F)F)cc2OCC(F)(F)F)c1)c1ccccc1 [1-269] | ≥ 70 | ≥ 70
CN(C(=O)c1c(F)cccc1F)c1cccc(C(=O)Nc2c(Br)cc(C(F)(C(F)(F)F)C(F)(F)F)cc2[S+]([O-])C(F)(F)F)c1 (stereo not shown) [2-174] | ≥ 70 | ≥ 70
COc1cc(C(F)(C(F)(F)F)C(F)(F)F)cc(I)c1NC(=O)c1cccc(NC(=O)c2cccnc2Cl)c1 [1-259] | ≥ 70 | ≥ 70
COc1cc(C(F)(C(F)(F)F)C(F)(F)F)cc(Cl)c1N(C)C(=O)c1cccc(N(C)C(=O)c2ccccc2)c1 [3-51] | ≥ 70 | ≥ 70
COc1cc(C(F)(C(F)(F)F)C(F)(F)F)cc(Cl)c1NC(=O)c1cccc(NC(=O)c2ccccc2F)c1 [1-264] | ≥ 70 | ≥ 70
COc1cc(C(F)(C(F)(F)F)C(F)(F)F)cc(Br)c1NC(=O)c1cccc(NC(=O)c2ccccc2F)c1 [1-254] | ≥ 70 | ≥ 70
CN(C(=O)c1cccnc1Cl)c1cccc(C(=O)Nc2c(Br)cc(C(F)(C(F)(F)F)C(F)(F)F)cc2S(=O)(=O)C(F)(F)F)c1 [2-195] | ≥ 70 | ≥ 70
COc1cc(C(F)(C(F)(F)F)C(F)(F)F)cc(C)c1NC(=O)c1cccc(N(C)C(=O)c2cccnc2Cl)c1 [2-261] | ≥ 70 | ≥ 70
COc1cc(C(F)(C(F)(F)F)C(F)(F)F)cc(Cl)c1NC(=O)c1cccc(NC(=O)c2ccccc2)c1 [1-263] | ≥ 70 | ≥ 70
COc1cc(C(F)(C(F)(F)F)C(F)(F)F)cc(Br)c1NC(=O)c1cccc(NC(=O)c2ccccc2)c1 [1-253] | ≥ 70 | ≥ 70
COc1cc(C(F)(C(F)(F)F)C(F)(F)F)cc(C)c1NC(=O)c1cccc(NC(=O)c2ccccc2)c1 [1-260] | ≥ 70 | ≥ 70
COc1cc(C(F)(C(F)(F)F)C(F)(F)F)cc(Br)c1NC(=O)c1cccc(NC(=O)c2cccnc2Cl)c1 [1-256] | ≥ 70 | ≥ 70
O=C(Nc1c(Br)cc(C(F)(C(F)(F)F)C(F)(F)F)cc1OCC(F)(F)F)c1cccc(NC(=O)c2cccnc2Cl)c1 [1-270] | ≥ 70 | ≥ 70
O=C(Nc1c(Br)cc(C(F)(C(F)(F)F)C(F)(F)F)cc1SC(F)(F)C(F)(F)C(F)(F)F)c1cccc(NC(=O)c2ccccc2F)c1 [1-205] | ≥ 70 | ≥ 70
O=C(Nc1c(Br)cc(C(F)(C(F)(F)F)C(F)(F)F)cc1SC(F)(F)F)c1cccc(NC(=O)c2ccc(F)cc2F)c1 [1-152] | ≥ 70 | ≥ 70
COc1cc(C(F)(C(F)(F)F)C(F)(F)F)cc(I)c1NC(=O)c1cccc(NC(=O)c2ccccc2)c1 [1-257] | ≥ 70 | ≥ 70
COc1cc(C(F)(C(F)(F)F)C(F)(F)F)cc(Cl)c1NC(=O)c1cccc(NC(=O)c2cccnc2Cl)c1 [1-265] | ≥ 70 | ≥ 70

SMILES | mortality [1] [%] | mortality [2] [%]
CN(C(=O)c1ccc(F)cc1)c1cccc(C(=O)Nc2c(Br)cc(C(F)(C(F)(F)F)C(F)(F)F)cc2[S+]([O-])C(F)(F)F)c1 (stereo not shown) [2-172] | ≥ 70 | ≥ 70
O=C(Nc1cccc(C(=O)Nc2c(Cl)cc(C(F)(C(F)(F)F)C(F)(F)F)cc2SC(F)(F)F)c1)c1ccccc1 [Compound No. 1-1] | ≥ 70 | ≥ 70
O=C(Nc1cccc(C(=O)Nc2c(Br)cc(C(F)(C(F)(F)F)C(F)(F)F)cc2SC(F)(F)C(F)(F)C(F)(F)F)c1)c1ccccc1 [1-204] | ≥ 70 | ≥ 70
CN(C(=O)c1ccccc1)c1cccc(C(=O)Nc2c(Br)cc(C(F)(F)C(F)(F)C(F)(F)F)cc2SC(F)(F)F)c1 [2-207] | ≥ 70 | ≥ 70
COc1cc(C(F)(C(F)(F)F)C(F)(F)F)cc(Br)c1NC(=O)c1cccc(NC(=O)c2ccc(C#N)cc2)c1 [1-266] | ≥ 70 | ≥ 70
O=C(Nc1c(Br)cc(C(F)(C(F)(F)F)C(F)(F)F)cc1SC(F)(F)F)c1cccc(NC(=O)c2c(F)cccc2F)c1 [1-151] | ≥ 70 | ≥ 70
N#Cc1ccc(C(=O)Nc2cccc(C(=O)Nc3c(Br)cc(C(F)(C(F)(F)F)C(F)(F)F)cc3OC(F)(F)F)c2)cc1 [1-246] | ≥ 70 | ≥ 70
COc1cc(C(F)(C(F)(F)F)C(F)(F)F)cc(C)c1NC(=O)c1cccc(NC(=O)c2ccccc2F)c1 [1-262] | ≥ 70 | ≥ 70
O=C(Nc1c(Br)cc(C(F)(C(F)(F)F)C(F)(F)F)cc1SC(F)(F)C(F)(F)F)c1cccc(NC(=O)c2ccccc2F)c1 [1-202] | ≥ 70 | ≥ 70
COc1cc(C(F)(C(F)(F)F)C(F)(F)F)cc(I)c1NC(=O)c1cccc(NC(=O)c2ccccc2F)c1 [1-258] | ≥ 70 | ≥ 70
CN(C(=O)c1ccc(F)cc1F)c1cccc(C(=O)Nc2c(Br)cc(C(F)(C(F)(F)F)C(F)(F)F)cc2[S+]([O-])C(F)(F)F)c1 (stereo not shown) [2-173] | ≥ 70 | ≥ 70
CN(C(=O)c1ccccc1)c1cccc(C(=O)Nc2c(Br)cc(C(F)(C(F)(F)F)C(F)(F)F)cc2SC(F)(F)C(F)(F)F)c1 [2-201] | ≥ 70 | ≥ 70
CN(C(=O)c1cccnc1Cl)c1cccc(C(=O)Nc2c(Br)cc(C(F)(C(F)(F)F)C(F)(F)F)cc2OCC(F)(F)F)c1 [2-270] | ≥ 70 | ≥ 70
O=C(Nc1c(Br)cc(C(F)(C(F)(F)F)C(F)(F)F)cc1SC(F)(F)C(F)(F)F)c1cccc(NC(=O)c2cccnc2Cl)c1 [1-203] | ≥ 70 | ≥ 70
CN(C(=O)c1ccncc1)c1cccc(C(=O)Nc2c(Br)cc(C(F)(C(F)(F)F)C(F)(F)F)cc2[S+]([O-])C(F)(F)F)c1 (stereo not shown) [2-175] | ≥ 70 | ≥ 70
CN(C(=O)c1ccc(F)cc1F)c1cccc(C(=O)Nc2c(Br)cc(C(F)(C(F)(F)F)C(F)(F)F)cc2SC(F)(F)F)c1 [2-152] | ≥ 70 | ≥ 70
O=C(Nc1cccc(C(=O)Nc2c(Br)cc(C(F)(C(F)(F)F)C(F)(F)F)cc2OC(F)(F)F)c1)c1ccc(Cl)cc1 [1-249] | ≥ 70 | ≥ 70
O=C(Nc1cccc(C(=O)Nc2c(Br)cc(C(F)(C(F)(F)F)C(F)(F)F)cc2SC(F)(F)F)c1)c1ccc(Cl)cc1 [1-146] | ≥ 70 | ≥ 70
O=C(Nc1cccc(C(=O)Nc2c(Br)cc(C(F)(C(F)(F)F)C(F)(F)F)cc2SC(F)(F)F)c1)c1ccc(C(F)(F)F)cc1 [1-150] | ≥ 70 | ≥ 70
O=C(Nc1c(Cl)cc(C(F)(C(F)(F)F)C(F)(F)F)cc1SC(F)(F)F)c1cccc(NC(=O)c2ccccc2F)c1 [1-8] | ≥ 70 | ≥ 70
CN(C(=O)c1ccc([N+](=O)[O-])cc1)c1cccc(C(=O)Nc2c(Br)cc(C(F)(C(F)(F)F)C(F)(F)F)cc2SC(F)(F)F)c1 [2-148] | ≥ 70 | ≥ 70
O=C(Nc1c(Br)cc(C(F)(C(F)(F)F)C(F)(F)F)cc1SC(F)(F)F)c1cccc(NC(=O)c2ccccc2C(F)(F)F)c1 [1-149] | ≥ 70 | ≥ 70
CN(C(=O)c1ccc(F)cc1)c1cccc(C(=O)Nc2c(Br)cc(C(F)(C(F)(F)F)C(F)(F)F)cc2SC(F)(F)F)c1 [2-145] | ≥ 70 | ≥ 70
COc1cc(C(F)(C(F)(F)F)C(F)(F)F)cc(C)c1NC(=O)c1cccc(N(C)C(=O)c2ccccc2)c1 [2-260] | ≥ 70 | ≥ 70
Cc1cc(C(F)(C(F)(F)F)C(F)(F)F)cc(SC(F)(F)F)c1NC(=O)c1cccc(NC(=O)c2ccccc2)c1 [1-166] | ≥ 70 | ≥ 70
